# Values from PubChem BioAssay AID504786 (Drosophila RNAi Screening Center, 2011).
# Aim: 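Fly genes required for HIF-dependent transcription when hypoxia is mimicked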 (primary screen)
# System: Drosophila S2 cells with a stable HIF luciferase reporter
# Reagent: long dsRNA against Drosophila genes, about 0.2 µg dsRNA per well of a 384-well plate
# Timing: three days of knock-down, then 20 h of DFO before reading
# Treatment: desferrioxamine (DFO) at 100 µM, an iron chelator that mimics hypoxia, for 20 h
# Measured: 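Firefly luciferase driven by the mouse ldh-a hypoxia-response element, measured after 20 h of 100 µM DFO; z-scores per plate, higher means more signal lost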
# Reading the numbers: z-score: higher = stronger loss of HIF reporter signal
# The screen tested about 21,000 reagents; below is an unselected part of those with a known target gene and a result. 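Primary screen; positive scores mean lost reporter signal, so the sign may be inverted from the usual convention.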 The numbers tell different reagents against one gene apart.
gene knocked down,dsRNA no.,"z-score, replicate 1","z-score, replicate 2","z-score, replicate 3","z-score, replicate 4"
Rala,1,-0.2,-0.2,,
CG14015,1,0.2,0,,
E2f1,1,2.9,4.1,,
CG7536,1,-0.4,-0.5,,
CG11638,1,-0.4,0.4,,
CG11638,2,-0.4,-0.5,,
CG7912,1,-0.4,-0.2,,
CG13309,1,-0.2,0.1,,
CG17572,1,-0.2,0.3,,
Myo95E,1,-0.2,-0.2,,
Lrpprc2,1,0,-0.2,,
Ids,1,-0.3,-0.4,,
CG11248,1,-0.3,-0.2,,
Ykt6,1,-0.5,0.4,,
stck,1,-0.3,-0.3,,
CG9701,1,-0.2,-0.4,,
ItgaPS5,1,-0.3,-0.2,,
Smyd4-3,1,-0.2,-0.5,,
ppk18,1,-0.3,-0.2,,
Rpi,1,-0.4,-0.3,,
Psi,1,-0.3,-0.2,,
HnRNP-K,1,0.1,0,-0.4,-0.3
Tsp26A,1,-0.3,-0.3,,
chas,1,-0.2,-0.6,,
chas,2,-0.3,-0.2,,
mthl12,1,-0.1,0.1,,
Bem46,1,-0.2,-0.4,,
fs(1)K10,1,-0.2,-0.2,,
Brd7-9,1,1,0.6,,
CG42709,1,-0.3,-0.4,,
PlexA,1,-0.3,0,,
CG12825,1,-0.3,-0.4,,
Atg4a,1,-0.1,-0.1,,
Tdc1,1,-0.2,-0.3,,
kon,1,-0.4,0.1,,
Dera,1,-0.3,-0.6,,
CG10413,1,-0.5,0.1,,
CG42674,1,0.6,-0.1,,
CG42674,2,-0.2,0.5,,
CG42674,3,-0.3,-0.4,,
CG30122,1,-0.1,0,,
CG30122,2,0.1,-1,,
CG31205,1,-0.2,-0.3,,
CG12310,1,-0.1,-0.1,,
CG5065,1,-0.2,-0.6,,
EMC3,1,0.1,0.5,,
CG4374,1,-0.5,-0.5,,
bif,1,-0.3,-0.3,,
bif,2,-0.1,-0.3,,
sqa,1,-0.4,-0.3,,
st,1,-0.2,1,,
CG12343,1,-0.3,0.6,,
Sobp,1,-0.4,-0.8,,
Ppt2,1,-0.3,-0.2,,
Rh5,1,-0.3,-0.2,,
Mzt1,1,-0.2,0,,
Ir87a,1,-0.2,-0.6,,
CheB42c,1,-0.3,-0.3,,
CG32073,1,0,0.2,,
CG32073,2,-0.2,-0.2,,
CG34161,1,-0.3,-0.4,,
Dyrk3,1,0.4,-0.3,,
Tsp97E,1,-0.3,-0.2,,
CG30095,1,-0.3,-0.4,,
Six4,1,-0.3,-0.3,,
CG12078,1,-0.2,-0.6,,
CG15435,1,-0.2,0.4,,
Nmt,1,-0.5,-0.9,,
CG3558,1,-0.4,-0.7,,
CG31688,1,-0.1,0,,
MFS3,1,-0.3,-1,,
CG32651,1,-0.2,-0.2,,
COX7AL2,1,0.9,-0.7,,
RpL15,1,,9.7,,
CG16721,1,-0.1,-0.1,,
CG42241 (retired record),1,-0.3,-0.3,,
Fpgs1,1,-0.2,0,,
Nedd8,1,-0.4,-0.4,,
Trm7-32,1,-0.2,0.3,,
Mlp60A,1,0.3,0.2,,
Sbds,1,-0.3,0.1,,
CG7785,1,-1,-0.6,,
Dpy-30L2,1,-0.4,-0.6,,

10 successive entries already listed:
gene knocked down,dsRNA no.,"z-score, replicate 1","z-score, replicate 2","z-score, replicate 3","z-score, replicate 4"
CG42709,1,-0.3,-0.4,,
PlexA,1,-0.3,0,,
CG12825,1,-0.3,-0.4,,
Atg4a,1,-0.1,-0.1,,
Tdc1,1,-0.2,-0.3,,
kon,1,-0.4,0.1,,
Dera,1,-0.3,-0.6,,
CG10413,1,-0.5,0.1,,
CG42674,1,0.6,-0.1,,
CG42674,2,-0.2,0.5,,
